Laboratory results from PubChem BioAssay AID493014 (National Center for Advancing Translational Sciences (NCATS), 2011).
This is one part of the list. The main result of the screen is listed elsewhere. These columns were measured beside it and carry no call. Compounds called inactive in the main read-out are mostly missing here. The note in brackets gives the kind of curve behind each potency; many fits are weak.

Assay: qHTS Assay to Find Inhibitors of Chronic Active B-Cell Receptor Signaling
Details: ABC-DLBCL IkBa-CBG/CBR reporter, luminescence ratio (green luciferase fused to IkBa over red control in TMD8 lymphoma cells), 4 h
Procedure, shortened: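 TMD8 human ABC-DLBCL cells with doxycycline-inducible IκBα–green luciferase fusion and unfused red luciferase, in 0.5% FBS medium; compounds up to 46 uM, 4 h at 37C. Green/red luminescence ratio, filter-overlap corrected, fitted to concentration-response curves.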

[1] = measured here: CBR red luminescence, cell number
[2] = measured here: IkBa-CBG green luminescence

Compound | AC50 [1] | AC50 [2]
N#Cc1ccccc1Oc1ccc(S(=O)(=O)N2CCCCC2)cn1 | 32.6 µM [falling, partial curve, poor fit] | –
Cc1ccc(C)c(-c2nnc(NC(=O)c3ccc([N+](=O)[O-])o3)o2)c1 | 18.4 µM [falling, partial curve, poor fit] | –
Cc1nnc2sc(SCc3ccccc3)nn2c1=O | 11.6 µM [falling, partial curve, poor fit] | –
COc1ccccc1NC(=S)NNC(=S)Nc1ccc(OC(F)F)cc1 | 10.3 µM [falling, partial curve] | –
CCCCCNC(=O)c1c[nH]c2ccc(S(=O)(=O)N3CCC(C)CC3)cc2c1=O | 20 µM [rising, single point] | –
Cc1cc(NC(=O)CCC(=O)N(Cc2ccco2)C2(C(=O)NC3CCCC3)CCC(C)CC2)no1 (stereo unspecified) | 35.5 µM [falling, single point] | –
Cc1nnnn1/C(=C\c1ccccc1)C(=O)OCC(=O)NC(C)(C)C | 6.51 µM [falling, full curve] | –
COc1cc(/C=C2\SC(=O)N(CC(=O)Nc3cccc(C)c3)C2=O)cc([N+](=O)[O-])c1O | 3.98 µM [falling, single point] | –
CCN1CCN(Cc2nc3c(c(=O)n(C)c(=O)n3C)n2CCc2ccccc2)CC1 | 2.59 µM [rising, partial curve, poor fit] | –
Cc1cc(C)c(CN2CCN(C(=O)Cn3cnc4c(NCc5ccccc5)ncnc43)CC2)c(C)c1 | 5.8 µM [falling, partial curve, poor fit] | –
CCN(Cc1ccncc1)C(=O)C1CCN(S(=O)(=O)c2cccs2)CC1 | 18.4 µM [rising, single point] | –
CCOc1ccc(NC(=S)N=Nc2c(O)[nH]c3ccccc23)cc1 | 3.98 µM [rising, single point] | 5.62 µM [falling, single point]
O=C(CSc1nnnn1C1CCCCC1)Nc1cccc(NC(=O)c2ccco2)c1 | 2.31 µM [falling, full curve] | –
CCN1CCN(c2nc(Nc3cc(OC)ccc3OC)nc(Nc3cc(OC)ccc3OC)n2)CC1 | 0.447 µM [rising, full curve, poor fit] | –
Cc1nn(-c2ccc(Cl)cc2Cl)c(=O)c2ccccc12 | 13 µM [rising, partial curve, poor fit] | –
Cc1[nH]c2ccccc2c1SCC(=O)N1CCOCC1 | 8.2 µM [falling, partial curve] | –
CCCc1c(C(=O)Nc2ccc(F)cc2)cnn1-c1ccccc1 | 11.2 µM [falling, partial curve] | –
CC(NCC(=O)Nc1ccccc1C(=O)NC1CC1)c1ccc(S(C)(=O)=O)cc1 (stereo unspecified) | 16.4 µM [rising, single point] | –
Cn1c(=O)c2c(SCC(=O)N3CCOCC3)nc(-c3ccccc3Cl)nc2n(C)c1=O | 14.1 µM [falling, single point] | 22.4 µM [rising, single point]

Some of the entries so far, as a markdown table.

| Compound | AC50 [1] | AC50 [2] |
| --- | --- | --- |
| COc1cc(/C=C2\SC(=O)N(CC(=O)Nc3cccc(C)c3)C2=O)cc([N+](=O)[O-])c1O | 3.98 µM [falling, single point] | – |
| CCN1CCN(Cc2nc3c(c(=O)n(C)c(=O)n3C)n2CCc2ccccc2)CC1 | 2.59 µM [rising, partial curve, poor fit] | – |

(more compounds)

Compound | AC50 [1] | AC50 [2]
O=c1oc2ccccc2c(O)c1/C=N/c1ccccn1 | 1.58 µM [falling, full curve] | –
COc1cccc(CN2CCNC(=O)C2CC(=O)N(C)CCC2CCOCC2)c1OC (stereo unspecified) | 0.891 µM [rising, full curve, poor fit] | –
CCOc1ccc(NC(=O)CN(C)C(=O)c2cc(C3CC3)nn2-c2ccccc2)cc1OCC | 18.4 µM [falling, partial curve, poor fit] | –
c1ccc(CCNc2ncnc3nc[nH]c23)cc1 | 14.6 µM [falling, partial curve, poor fit] | –
C/C(=N/NC(=O)c1ccccc1O)c1ccc(N2C(=O)C3CCCCC3C2=O)cc1 (stereo unspecified) | 10 µM [falling, partial curve] | –
O=C(Nc1nc(-c2ccccc2)cs1)C1CCCO1 (stereo unspecified) | 6.51 µM [falling, single point] | –
COC(=O)c1ccccc1NC(=S)NC(NC(=O)c1ccccc1[N+](=O)[O-])C(Cl)(Cl)Cl (stereo unspecified) | 35.5 µM [falling, single point] | –
COC(=O)c1cc(C(=O)N2CCOCC2)cc([N+](=O)[O-])c1 | 3.98 µM [rising, single point] | –
CC(=O)c1c(C)nc(-c2ccc(OCC(=O)Nc3ccccc3)cc2)n1O | 15.8 µM [falling, partial curve, poor fit] | 12.6 µM [rising, partial curve, poor fit]
CCCN1CCc2c(sc3nc(SCC)n(-c4ccc(OC)cc4)c(=O)c23)C1 | 10 µM [rising, partial curve, poor fit] | –
CCN(CC)S(=O)(=O)c1ccc2c(c1)N(CC(=O)NCCc1ccc(OC)c(OC)c1)C(=O)CO2 | 2.51 µM [rising, partial curve, poor fit] | –
Cc1ccc(NC(=O)NC2CC(=O)N(c3ccc4c(c3)OCCO4)C2)cc1C (stereo unspecified) | 16.4 µM [falling, single point] | –
COc1ccc(CN(C2CCCCC2C)S(=O)(=O)c2ccc(S(=O)(=O)N(C)C)cc2)cc1OC (stereo unspecified) | 29.1 µM [rising, single point] | –
CCOC(=O)C1=CN(Cc2cccc(F)c2)S(=O)(=O)N(CC)C1c1ccc(F)c(Cl)c1 (stereo unspecified) | 9.2 µM [falling, partial curve] | –
CCCC(c1c(C)n(C)n(-c2ccccc2)c1=O)c1c(C)n(C)n(-c2ccccc2)c1=O | 35.5 µM [rising, single point] | –
N#CC(C#N)=Cc1c(N2CCN(c3ccccc3)CC2)nc2ccccn2c1=O | 15.8 µM [rising, single point] | –
CCCCN1C(=O)C(C)=C(C)C1OCCc1ccc(OC)c(OC)c1 (stereo unspecified) | 35.5 µM [rising, single point] | –
Cn1c(=O)c2c(SCc3cccnc3)nc(C3CC3)nc2n(C)c1=O | 0.206 µM [falling, full curve, poor fit] | –
Cc1cc(C(=O)N/N=C/c2ccc([N+](=O)[O-])s2)n[nH]1 | 3.55 µM [rising, single point] | –
